Whole data set: some 33,000 sequences, median “E-score (-0.5 to 0.5)” near -8e-05, cut for the highest 2% near 0.23. This is one part of the list.
Biological target: T1, Nrg2 (UniProt P38082)
T1 sequence: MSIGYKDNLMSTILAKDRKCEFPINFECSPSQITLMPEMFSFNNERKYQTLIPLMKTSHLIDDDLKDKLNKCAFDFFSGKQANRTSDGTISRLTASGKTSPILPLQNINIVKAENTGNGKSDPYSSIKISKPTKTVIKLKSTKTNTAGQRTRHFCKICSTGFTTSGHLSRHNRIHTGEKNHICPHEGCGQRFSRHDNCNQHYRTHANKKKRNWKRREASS
Experiment: PBM E-score (8-mer binding enrichment) (E-score (-0.5 to 0.5)); higher = stronger / more preferred TF binding
Details: protein concentration: 100 nM; construct: GST-full length
Method: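 Universal 'all 10-mer' protein binding microarrays (Agilent AMADID 015681) probed with GST-tagged S. cerevisiae TFs (full-length or DBD) made by in vitro transcription/translation (PURExpress), about 100-200 nM. Bound TF was detected with fluorescent anti-GST. Each ungapped 8-mer (which stands for itself and its reverse complement) is scored by the PBM enrichment score (E-score), a modified Wilcoxon-Mann-Whitney statistic from -0.5 to +0.5, computed with the Universal PBM Analysis Suite. Scale: above 0.35 generally sequence-specific binding.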

Sequence	PBM E-score
AGTACTCG	0.115
CTTTTCCA	-0.202
CGCCAGGC	-0.0686
GACTCCCA	-0.248
GCGTTATA	0.0618
CATGGGTC	-0.0418
GAATCAAC	0.144
AGCTCTAG	-0.0598
GACACGAA	0.142
GGGTCGTA	-0.00314
CACATCAA	0.105
TACGTGCA	0.0733
AGAAGGAT	-0.123
ACCCCATA	0.128
CCTTGAAG	-0.0902
TAGGGGAA	0.0444
ACAGTCCC	-0.103
GCATGCAC	0.103
CCGAATCA	-0.00689
GCCATTAA	0.0831
ACGCCAGC	-0.0279
GGCGACTA	-0.0199
CTCAATCC	-0.0337
TAGCCTCA	-0.0677
CTCCCCTA	-0.0407

Sequence	PBM E-score
ATTTTACA	-0.0773
CGCCGCAG	0.0765
CGCTTGCA	0.0782
CAACGGAC	-0.0576
ATGGGCCC	0.186
AGGGCGTC	-0.0155
CTTCGTGC	-0.0234
TCCCGACA	-0.0979
GTCCTCTA	-0.206
AAAGAATA	0.136
AATAAGAA	0.233
AGACTTCA	-0.194
AATTGGTA	0.12
GCTGTCTA	-0.0102
CGATTCAG	0.0573
CCATTAGC	-0.0358
CAAGGTCG	0.00137
AAGAGTCT	-0.213
CGGGCCTC	-0.0517
CACTGAAG	0.0593
CGAGTTAA	0.264
AAAACACC	-0.0282
ACGTAGCG	-0.117
CTTCAGCC	-0.229
ACGACAAA	0.128

Sequence	PBM E-score
AGCAGGCA	-0.211
TACCACAA	0.0795
TCCTAACA	0.0435
AGTCGATC	-0.0397
ACGGAGAC	0.0901
GCTAGCGA	0.0379
ACAAAGCG	0.0461
GATTAACA	0.171
ATGCTAGA	-0.108
ACCGAACC	-0.254
GGCGTATA	-0.174
AAGTTATA	0.0407
ACAGCCGT	-0.101
CGTAGGAA	-0.0744
CCATTGGC	-0.0477
AGTTTCGA	0.0135
ATTAGCAG	0.179
ATTACTAC	-0.219
TCGCGCCA	0.0872
AGACCTGG	-0.0485
TCATTAGA	0.0888
ATGGATGG	-0.113
CGGCTCGA	0.101
ATTACCGG	-0.18
CATCCTGG	0.0732

Sequence	PBM E-score
TCTAGTAA	0.0759
ACTCGGGC	-0.00664
GTTGTCGA	0.0581
GATGCACA	0.104
ATTTCCCC	0.153
AGCACATA	0.0815
ATGATGTA	0.174
ATGCTTTC	0.037
GAACTTGA	0.0309
ACGGACCG	-0.252
AAAAGAAG	0.0497
GGTATTTA	0.0832
CTATAGAA	-0.0392
GATGATCC	0.056
AGGTGGTG	-0.0695
CCGGAGAG	-0.0831
CTAACCGC	-0.188
ATCGTAGA	-0.0603
TTATCGAA	0.0758
CTAACTCC	-0.074
CTTACGTA	-0.165
AACGAGAA	0.0216
AACGAAAA	0.178
TAGTCGGA	0.0335
ACCCGAGT	0.0162

Sequence	PBM E-score
ACTAACCG	-0.0844
ATAAGAAA	0.101
AACTTTCC	0.00616
TACCTACA	0.156
AGTCTTGA	-0.0377
ACTGGGGA	-0.122
ATACGCAA	0.232
AACTGGAC	0.0787
CGATTCAC	-0.0274
AAGAAGCG	-0.132
AATTATCA	0.145
AGGACACG	-0.119
AATAAGCA	0.0921
AGGGTCGC	0.243
GAACGAGC	0.156
ACGCCAAG	-0.127
CCGGGCTC	-0.178
GCGGGAAC	0.0153
CCCACCAC	0.117
GATGGTGA	-0.0969
GACTGCGA	-0.0315
AACCTCCA	-0.367
CGCTGGAG	-0.0111
CACGAACG	-0.00575
CTAACGTC	-0.00975

Sequence	PBM E-score
GAGGACTA	-0.125
GAGTGACA	0.134
ACCGCCTG	-0.205
ATCTACCA	0.167
ATGCCTAA	-0.196
AGGTGCGA	-0.131
GCTGCTGA	0.0122
AGAAAGAA	-0.0402
CTGGAAGA	0.0145
ATTTTTCC	-0.0723
AACTGCGA	2e-05
AACCCCAG	0.237
AACCCCCG	-0.392
TCATTCGA	0.144
TAGATAGA	0.0651
AAACCGGG	0.0532
ATTGCAAC	0.1
CCAACGCC	-0.11
CAAGCTGG	-0.0819
CTAGTTCA	0.105
AGATCGGC	-0.00341
AGGGATAG	0.0482
CTTTTTGC	0.155
AGATGTAG	-0.0495
TACTGATA	0.131

Sequence	PBM E-score
AGTCACAC	-0.0305
GCGCGTAA	0.127
ATTTAGAC	-0.0405
AAAGAACC	0.0591
AAAGGCCT	-0.275
GCAGCGTA	-0.128
AACTTTCA	0.0124
CTGACCGA	-0.05
GCTCTCCA	-0.0723
ATGAACTA	0.135
AGGTGCTA	-0.152
GATGGTGC	-0.383
ATGTCTAG	0.0513
CCTCGGTA	-0.284
CCCAGCCA	-0.0397
ATACGTGA	-0.0717
CGCGTTAG	0.0788
ACCTATGC	-0.124
ACGTCTTC	-0.0978
ACGCAAAC	0.0287
ACCCCAGC	0.0626
CCCGACAG	-0.165
ATTACGAA	-0.0193
CCCATCAG	-0.216
TATTTTAA	0.0391

A stretch from the list above:
Sequence	PBM E-score
AGATGTAG	-0.0495
TACTGATA	0.131
AGTCACAC	-0.0305

Continuation:

Sequence	PBM E-score
CGGCATAG	-0.0721
CCCGTTAG	-0.208
AGGCCGGC	-0.0215
ATATGAAT	0.134
TCTCAAGA	0.0717
AATAGAGC	0.13
GGCCCGGA	-0.31
AAGAGTAC	0.142
CCGCGCCC	-0.0342
GTCTTGGA	-0.01
CGTATGGC	0.084
GCTCCCGA	-0.231
CGAGGTCA	0.0254
CAAAATCA	0.0593
ATAGTACA	0.108
CGGTGTAG	0.0602
ACTTGCGC	0.0684
CCATTCTC	-0.0701
AGCTGCGC	0.108
AGGGAAGG	-0.231
TAAATCTA	0.0846
ACCACTTC	-0.0929
AAGCATCA	0.0199
AACGCAAT	0.0611
CTGGATTA	0.0913

Sequence	PBM E-score
TCGCTGCA	0.125
TTACACAA	0.0808
CTGTAGAC	-0.135
CGCGCGCG	0.302
ATACTCGA	0.0646
GAGCGCGA	0.196
CACGGAAG	-0.196
GCTGCTCC	-0.136
AACGTAGC	-0.085
ATGACTTA	0.0332
CGCTGTAC	0.041
TCCGCTAA	0.0636
ACCCTTCT	-0.104
CGCCGTCA	0.0626
ACATGGGC	0.128
GCTGGGCA	0.0393
TAGGCAGA	-0.0271
AGCGTGAA	-0.118
AGGTCCTC	-0.117
ATCTGACC	0.125
ATTTACGA	0.024
GAGTGATC	0.136
AAGACCGC	-0.0957
TCCGGAGA	-0.0525
ACCAACTA	0.17

Sequence	PBM E-score
CCACCTAG	-0.13
CATCATCG	0.0376
AAAACAAC	-0.185
ATTGCTTC	0.0796
AAAATAAG	0.153
CACATAGG	-0.028
CCTCCATC	-0.257
CAGGTTGA	-0.0404
GCGCCTCA	0.00325
CGAACGCA	0.282
AACCGGCA	-0.106
CACTCAAG	-0.126
ACATTTCT	0.1
AGGGCAAC	0.115
CCATGCAG	0.155
ATCGCGGC	0.166
CCCTTAAA	0.101
CCCATATC	0.186
ATTTCCAG	0.0415
GCTTCTAA	-0.133
CGCAACAA	0.0368
GGCTCGGA	-0.246
CAAGCGAA	0.147
TCGGCCCA	-0.0697
ATTTGGGG	0.098

Sequence	PBM E-score
CTGGTTAC	-0.23
ATCTTAAT	0.0874
CAAAGTTA	0.135
CCTTAGTC	-0.119
AGCAACTA	0.00881
GAGGCGAC	-0.131
AAGGCCGG	-0.146
GGTAGGGA	0.0892
TCGTTACA	-0.0882
GCTTAGAA	-0.104
AATCCATC	0.127
CTGTAGCA	-0.167
GAGTTCCA	0.00119
CTCAGTAC	-0.0223
ACTGGCTA	-0.124
AGCGTGCC	-0.194
CGTTTCTC	-0.0286
CGCCCCAA	0.261
GCTGTCCC	-0.00551
AGGAGTAG	-0.0836
AGATAGGA	-0.0906
ACATCGAA	0.14
CATAAAAG	-0.198
CCACCTAC	-0.174
AACTCCAA	0.0352

Sequence	PBM E-score
AGGACCAA	0.00705
CAACAAGA	0.122
CCCGCTAC	-0.0356
AGAAACAC	0.0617
ACTTACAT	-0.0423
ACCATAAC	0.171
GACGTCAC	0.0326
AAAAGGAT	0.0569
CACGTAAA	-0.198
CCTCTGTC	0.00755
GACTCCAC	-0.261
AGCTGCAC	0.0402
ACCCTTAA	0.152
ACTACCCT	0.188
CTAAGAAA	0.0878
TCGGGCCA	-0.122
AACTCACA	0.102
CCAACCAC	0.196
ACTCTTTG	-0.101
CGGAGTGC	0.0897
GGGCGGGA	0.083
AGCGTTTG	-0.147
AGCAGCAA	0.0369
ACAGGGGT	0.0476
AGGATCGC	-0.0753

Sequence	PBM E-score
CGAGTACA	0.131
ACGACCGT	-0.187
GCAGGCAC	-0.211
ACCAACAC	0.102
CCGTCCAA	-0.145
GATAAGCC	-0.125
ACCCACCG	0.016
CCGCTCCA	-0.0938
GTAATCAC	0.0157
AGCGCACA	0.137
ATCGGGAA	0.183
CGTAGTTA	0.0341
TACCCAGA	0.142
CCGATCAG	-0.11
CACGCGTG	0.198
CACCGAAC	-0.16
ACGTTAAT	0.116
AACCGTAC	-0.178
CCCCGTTC	-0.0868
GCGGCCAA	-0.133
ATTCCTGG	0.0563
ATTACTAG	0.0374
GAAGGGGA	-0.0452
ACATGGGA	0.146
GGCTTGTA	-0.0417

Sequence	PBM E-score
CCCGTAAA	0.0385
CATATTAG	0.124
AGGCTCCA	-0.252
GACCTTCC	-0.112
GTATGTAA	0.0287
GACCGGTC	0.00213
ACACGGAC	0.0246
CACAATTA	0.025
CACACACC	-0.13
CTCCGGCC	-0.297
CTCTCTCA	-0.0307
CATCTCAC	-0.0644
GTCACATA	-0.101
AACCGATC	-0.16
AGCACCAA	0.0406
ACATCGTG	0.00152
AAGGATTG	0.0909
AAGTTTGT	-0.00229
CCATCCGC	0.0584

Some of the entries above, reformatted:
Sequence | PBM E-score
GTCACATA | -0.101
AACCGATC | -0.16
AGCACCAA | 0.0406
ACATCGTG | 0.00152
AAGGATTG | 0.0909
AAGTTTGT | -0.00229
